For at least one compound, name, drawing or mass did not settle the structure.
Test system: CA1 pyramidal neurons
Experiment: Membrane potential and depolarization during HFS in hippocampal slices
Format: cell-based, rat
Conditions: cPAF-exposed neurons
Procedure: Imaging and LTP in acute hippocampal slices. Brains were removed from 17-30 day-old male Sprague-Dawley rats anesthetized with ketamine (180 μg/g), submerged them in ice-cold solution (in mM: NaCl 125, KCl 5, NaH2PO4 1.25, NaHCO3 28, CaCl2 0.5, MgCl2 4, D-glucose 25, kynurenic acid 1, bubbled with 95% O2/5% CO2), and cut 250 μm coronal slices using a vibroslice. Slices recovered in artificial cerebrospinal fluid (aCSF, in mM: NaCl 125, KCl 2.5, NaH2PO4 1.25, NaHCO3 25, CaCl2 2, MgCl2 1, D-glucose 25, bubbled with 95% O2/5% CO2) for >90 min prior to experiments.
Slices were transferred to a custom-made recording chamber perfused (1 ml/min) with aCSF containing 1 μM cPAF or vehicle. Membrane potentials from CA1 pyramidal neurons were recorded via whole-cell patch clamp, using 4-6 MΩ electrodes (filled with, mM: KCl 20, potassium gluconate 130, EGTA 0.5, HEPES10, MgSO4 2, ATP 2.5, GTP 0.5, pH 7.3) and a Multiclamp 700A amplifier with pClamp 9 software (Axon Instruments). Afferents were stimulated by constant current pulses (200 μs) via a bipolar stimulating electrode 50-200 μm away in the stratum radiatum. 10 μM bicuculline were included in the aCSF to isolate EPSPs, and adjusted stimulating intensity to elicit EPSPs 30% of maximal. […] Amplitude (maximal sustained depolarization) and duration (at >25% maximal amplitude) of depolarization during HFS were also quantified.

CCCCCCCCCCCCCCCCOC[C@H](COP(=O)([O-])OCC[N+](C)(C)C)OC(=O)NC [cPAF]
extent of depolarization during HFS: 31.8:±11.9 mV
